PubChem BioAssay AID686938 | Drosophila RNAi Screening Center, 2013
The deposit covers about 23,000 reagents; this is a random part of those with a known target gene and a result. Of all reagents, 75 (0.33%) are marked active. 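Raw plate signals without normalisation; calls rest on plate z-scores that were not deposited; ratio present for only 364 wells.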 A number with no mark means an inactive call. No sequences are given here. Not stated in the record: the dose of the treatment.

- Aim: 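Fly genes required for calcium entry once internal stores are emptied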 (primary screen)
- System: Drosophila S2R+ cells
- Knock-down reagent: long dsRNA against Drosophila genes, about 0.25 µg dsRNA per well, roughly 10,000 cells
- Time to read-out: 5 days of knock-down before the calcium assay
- Conditions: thapsigargin (SERCA pump blocker) to empty calcium stores; entry signal taken 4 min after adding it
- Measured: 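Duplicate raw fluo-4 intensities per well from a plate reader, at rest and four minutes after thapsigargin emptied calcium stores; entry-to-rest ratio filled for only some wells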
- Scale: calcium entry signal: higher = stronger calcium signal after store depletion; resting calcium signal: higher = higher resting calcium signal
- Units: calcium entry signal in fluorescence units; resting calcium signal in fluorescence units
- Rule for the call: 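Called when the plate z-score of the entry-to-rest ratio, mean of duplicates, falls below −3; wells with low overall dye signal (Fmax z below −2) or more than five off-targets excluded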
- Calls: active = strongly reduced calcium entry; inactive = no strong reduction

Tsr1 (Tsr1 ribosome assembly factor) [DRSC11821] gave calcium entry signal, replicate 1 = 2.51e7; calcium entry signal, replicate 2 = 3.08e7; resting calcium signal, replicate 1 = 1.33e7; resting calcium signal, replicate 2 = 1.91e7.
With knock-down of CG15531 [DRSC15068] the results were calcium entry signal, replicate 1 = 2.37e7; calcium entry signal, replicate 2 = 3.06e7; resting calcium signal, replicate 1 = 1.32e7; resting calcium signal, replicate 2 = 1.41e7.
With knock-down of CG42613 [DRSC13332], the record shows calcium entry signal, replicate 1 = 3.28e7; calcium entry signal, replicate 2 = 2.79e7; resting calcium signal, replicate 1 = 1.70e7; resting calcium signal, replicate 2 = 1.34e7.
For CG42613 [DRSC14769] the deposit lists calcium entry signal, replicate 1 = 1.18e7; calcium entry signal, replicate 2 = 2.27e7; resting calcium signal, replicate 1 = 3.09e7; resting calcium signal, replicate 2 = 1.04e7.
Depletion of CG42613 [DRSC15802] came out at: calcium entry signal, replicate 1 = 2.37e7; calcium entry signal, replicate 2 = 2.03e7; resting calcium signal, replicate 1 = 1.03e7; resting calcium signal, replicate 2 = 8.80e6.
For CG42613 [DRSC22613], the entry reads calcium entry signal, replicate 1 = 3.84e7; calcium entry signal, replicate 2 = 3.44e7; resting calcium signal, replicate 1 = 2.14e7; resting calcium signal, replicate 2 = 1.73e7.
Depletion of CG18011 [DRSC06697] resulted in: calcium entry signal, replicate 1 = 4.21e7; calcium entry signal, replicate 2 = 3.85e7; resting calcium signal, replicate 1 = 1.74e7; resting calcium signal, replicate 2 = 1.81e7.
Against CG18011 [DRSC06706] the deposit lists calcium entry signal, replicate 1 = 2.55e7; calcium entry signal, replicate 2 = 3.09e7; resting calcium signal, replicate 1 = 1.17e7; resting calcium signal, replicate 2 = 1.30e7.

A few values from the list.
Value of CG42613 [DRSC22613] in “calcium entry signal, replicate 1”: 3.84e7
CG18011 [DRSC06697], resting calcium signal, replicate 2 → 1.81e7
Result of CG42613 [DRSC15802] under “calcium entry signal, replicate 2”: 2.03e7

The list goes on.
Knock-down of Pen (Pendulin) [DRSC03396] resulted in: calcium entry signal, replicate 1 = 4.66e7; resting calcium signal, replicate 1 = 2.23e7.
For CG14332 [DRSC14811], the values are calcium entry signal, replicate 1 = 3.98e7; calcium entry signal, replicate 2 = 5.64e7; resting calcium signal, replicate 1 = 1.93e7; resting calcium signal, replicate 2 = 7.18e7.
For CG12355 [DRSC09381], the entry reads calcium entry signal, replicate 1 = 5.13e7; calcium entry signal, replicate 2 = 3.25e7; resting calcium signal, replicate 1 = 2.57e7; resting calcium signal, replicate 2 = 1.63e7.
Depletion of CG12355 [DRSC09883] gave: calcium entry signal, replicate 1 = 3.65e7; calcium entry signal, replicate 2 = 5.67e7; resting calcium signal, replicate 1 = 1.83e7; resting calcium signal, replicate 2 = 2.25e7.
Surf1 (Surfeit 1) [DRSC11295] showed calcium entry signal, replicate 1 = 2.59e7; calcium entry signal, replicate 2 = 3.49e7; resting calcium signal, replicate 1 = 1.34e7; resting calcium signal, replicate 2 = 1.61e7.
For Surf1 (Surfeit 1) [DRSC11394], the entry reads calcium entry signal, replicate 1 = 4.97e7; calcium entry signal, replicate 2 = 3.34e7; resting calcium signal, replicate 1 = 3.11e7; resting calcium signal, replicate 2 = 1.43e7.
For CG2218 [DRSC15428], the entry reads calcium entry signal, replicate 1 = 3.48e7; calcium entry signal, replicate 2 = 4.52e7; resting calcium signal, replicate 1 = 1.71e7; resting calcium signal, replicate 2 = 2.22e7.
For CG9921 [DRSC20220], the values are calcium entry signal, replicate 1 = 2.54e7; calcium entry signal, replicate 2 = 2.62e7; resting calcium signal, replicate 1 = 1.40e7; resting calcium signal, replicate 2 = 1.48e7.
After knock-down of CG9632 [DRSC16528], the record shows calcium entry signal, replicate 1 = 3.01e7; calcium entry signal, replicate 2 = 4.86e7; resting calcium signal, replicate 1 = 1.56e7; resting calcium signal, replicate 2 = 5.42e7.
Knock-down of CG33325 [DRSC12699] resulted in: calcium entry signal, replicate 1 = 3.33e7; calcium entry signal, replicate 2 = 4.11e7; resting calcium signal, replicate 1 = 1.57e7; resting calcium signal, replicate 2 = 2.03e7.
Knock-down of CG32712 [DRSC17820] came out at: calcium entry signal, replicate 1 = 3.30e6; calcium entry signal, replicate 2 = 2.50e7; resting calcium signal, replicate 1 = 3.38e6; resting calcium signal, replicate 2 = 1.20e7.
For Ptpmeg2 (Protein tyrosine phosphatase Meg2) [DRSC18277] the deposit lists calcium entry signal, replicate 1 = 4.34e7; calcium entry signal, replicate 2 = 5.92e7; resting calcium signal, replicate 1 = 2.15e7; resting calcium signal, replicate 2 = 2.81e7.
After knock-down of Ptpmeg2 (Protein tyrosine phosphatase Meg2) [DRSC18278], the record shows calcium entry signal, replicate 1 = 4.27e7; calcium entry signal, replicate 2 = 5.20e7; resting calcium signal, replicate 1 = 2.09e7; resting calcium signal, replicate 2 = 2.51e7.
Ptpmeg2 (Protein tyrosine phosphatase Meg2) [DRSC23303] showed calcium entry signal, replicate 1 = 5.00e7; calcium entry signal, replicate 2 = 3.55e7; resting calcium signal, replicate 1 = 2.53e7; resting calcium signal, replicate 2 = 1.62e7.
